Consider 36 sequences from paper PMC7862700.

Amino acid sequences for entries named in this document (tags omitted). A change or cut given only in a name is not applied to a line headed by its entry.
UniProt Q9Y603: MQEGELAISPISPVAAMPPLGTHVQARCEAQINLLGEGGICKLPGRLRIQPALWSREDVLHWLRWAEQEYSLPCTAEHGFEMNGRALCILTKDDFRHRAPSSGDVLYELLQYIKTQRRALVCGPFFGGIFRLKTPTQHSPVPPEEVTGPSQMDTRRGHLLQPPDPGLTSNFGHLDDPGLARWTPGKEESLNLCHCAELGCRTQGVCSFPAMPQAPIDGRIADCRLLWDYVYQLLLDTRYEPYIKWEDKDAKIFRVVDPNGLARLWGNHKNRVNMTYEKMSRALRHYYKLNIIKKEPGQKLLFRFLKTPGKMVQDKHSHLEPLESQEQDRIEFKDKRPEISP
UniProt P41212: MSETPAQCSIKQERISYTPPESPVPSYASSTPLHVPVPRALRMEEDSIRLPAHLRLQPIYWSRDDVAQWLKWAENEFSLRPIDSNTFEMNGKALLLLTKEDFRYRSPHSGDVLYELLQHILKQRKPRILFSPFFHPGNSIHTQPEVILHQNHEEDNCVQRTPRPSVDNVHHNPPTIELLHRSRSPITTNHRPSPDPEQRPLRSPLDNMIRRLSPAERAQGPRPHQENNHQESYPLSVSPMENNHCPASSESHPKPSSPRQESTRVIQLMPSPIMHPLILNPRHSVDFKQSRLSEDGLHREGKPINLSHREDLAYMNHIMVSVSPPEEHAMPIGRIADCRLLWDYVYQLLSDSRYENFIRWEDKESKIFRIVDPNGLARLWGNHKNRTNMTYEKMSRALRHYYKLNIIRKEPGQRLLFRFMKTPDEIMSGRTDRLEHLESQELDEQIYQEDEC

This is a selection; strong and weak results do not stand in their true shares. At the low end of the ranking, values are background and their order means little.

Holding throughout (assay): DAPPL (digital affinity profiling via proximity ligation, sequencing)
Details in all cases: 10 mM Tris-HCl pH 7.5, 50 mM NaCl, 1 mM DTT, 4% glycerol, room temperature, 30 min; GST-TFs on glutathione beads, 16-mer random dsDNA library, 0.1% …; high values mean tight binding; double strand, one strand shown; scale: fold enrichment (6-mer frequency, TF over GST control)

The target in experiment [1] is T1, ELF3 (UniProt P78545).
T1 sequence: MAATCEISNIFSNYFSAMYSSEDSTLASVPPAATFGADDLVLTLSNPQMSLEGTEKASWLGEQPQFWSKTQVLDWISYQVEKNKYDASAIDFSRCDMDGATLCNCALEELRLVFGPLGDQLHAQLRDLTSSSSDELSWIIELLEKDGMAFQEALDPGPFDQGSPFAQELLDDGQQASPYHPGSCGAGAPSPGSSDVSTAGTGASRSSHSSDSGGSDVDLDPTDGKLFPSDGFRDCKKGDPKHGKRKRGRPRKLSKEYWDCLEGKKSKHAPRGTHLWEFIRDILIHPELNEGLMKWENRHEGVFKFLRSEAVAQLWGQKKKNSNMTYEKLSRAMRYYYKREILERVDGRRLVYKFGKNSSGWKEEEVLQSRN

For experiment [2], the target named is ETV7 (UniProt Q9Y603).
Experiment [3] deals with ETV6 (UniProt P41212).

Take GGACCA: the binding signal came to 0.791 in experiment [1], 0.684 in experiment [2] and 0.691 in experiment [3].
For CGGACT, in that order: 0.869, 0.796 and 0.776.
With ACGGGG, the binding signal in experiment [1] turned out to be 0.587; in experiment [2], 0.708; in experiment [3] it was 0.659.
For the sequence GAGACA, the binding signal in experiment [1] is 0.413; in experiment [2] it was 0.469; in experiment [3], 0.385.
The like results for AGGCAG were, in that order, 0.567, 0.628 and 0.546.
For the sequence GGTAGA, the binding signal in experiment [1] was found to be 0.717; in experiment [2] it was 0.667; in experiment [3], 0.589.
Consider GGTCGT, for which the binding signal was determined as 0.642 in experiment [1], 0.68 in experiment [2] and 0.618 in experiment [3].
For TGTGTC, in that order: 0.763, 0.851 and 0.777.
Take GATCAG: the figures for the binding signal in experiment [1], in experiment [2] and in experiment [3] were 0.79, 0.772 and 0.744, respectively.
For AGCCAT, in that order: 0.961, 0.883 and 0.858.
For GGCATC, in that order: 0.807, 0.739 and 0.961.
The like results for AAAGTG were, in that order, 0.861, 1.04 and 0.875.
As for GCGTAG, the binding signal amounted to 0.822 in experiment [1], 0.746 in experiment [2] and 0.845 in experiment [3].
For GGCCAA, in that order: 0.728, 0.837 and 0.743.
For CAAGTG, in that order: 0.782, 0.814 and 0.724.
Take CGGGCC: the binding signal in experiment [1] stood at 0.748; in experiment [2], 0.811; in experiment [3], 0.732.
The like results for GGGTCT were, in that order, 0.841, 0.918 and 0.893.
For AGCCGA, in that order: 0.833, 0.909 and 0.774.
As to GCCCAG, the binding signal in experiment [1] worked out at 0.682; in experiment [2], 0.791; in experiment [3] it was 0.735.
For ACCAGT, in that order: 0.462, 0.535 and 0.441.
The like results for GGCGAC were, in that order, 0.752, 0.755 and 0.831.
Turning to GGTCAT, the binding signal in experiment [1] stood at 0.828; in experiment [2] it was 0.887; in experiment [3] it was 0.827.
For CGTGTG, the results for the binding signal in experiment [1], in experiment [2] and in experiment [3] were 0.431, 0.427 and 0.407, respectively.
Take AGTTCA: the binding signal in experiment [1] amounted to 0.98; in experiment [2], 0.975; in experiment [3] it was 0.923.
The like results for GTCAAC were, in that order, 0.917, 0.848 and 0.823.
For GGTGCT, in that order: 0.829, 0.885 and 0.863.
The like results for TCGGTG were, in that order, 0.484, 0.566 and 0.574.
With TGAGTG, the figures for the binding signal in experiment [1], in experiment [2] and in experiment [3] were 0.388, 0.419 and 0.447, respectively.
The like results for AGCGTT were, in that order, 0.859, 0.996 and 0.918.
For CACCGT, in that order: 0.577, 0.65 and 0.65.
For AGCAGG, in that order: 0.904, 0.888 and 0.957.
Turning to CAGTGG, the binding signal in experiment [1] came out at 0.545; in experiment [2] it was 0.509; in experiment [3] it was 0.478.
As to GAGTAG, the binding signal amounted to 0.557 in experiment [1], 0.584 in experiment [2] and 0.473 in experiment [3].
In the case of CGGTCG, the binding signal worked out at 0.372 in experiment [1], 0.428 in experiment [2] and 0.42 in experiment [3].
The like results for GCATTG were, in that order, 0.781, 0.892 and 0.81.
With ACGAGA, the binding signal in experiment [1] was 0.679; in experiment [2] it was 0.701; in experiment [3], 0.701.
